# From PMC12320502
# By UniProt entry, the sequences of proteins in these tests, tags left out. Where a name states a change or a piece, a line headed by the entry shows the natural chain unless it says otherwise. Residues count along the entry.
# UniProt Q8IVN8: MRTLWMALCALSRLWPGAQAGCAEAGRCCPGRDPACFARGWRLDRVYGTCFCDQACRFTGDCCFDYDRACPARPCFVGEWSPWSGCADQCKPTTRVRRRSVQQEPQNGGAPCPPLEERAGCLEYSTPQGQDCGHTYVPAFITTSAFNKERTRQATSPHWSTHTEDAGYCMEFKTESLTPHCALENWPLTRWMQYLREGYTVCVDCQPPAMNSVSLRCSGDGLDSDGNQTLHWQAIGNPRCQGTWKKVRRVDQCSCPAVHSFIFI
# UniProt P11021, residues 19-654: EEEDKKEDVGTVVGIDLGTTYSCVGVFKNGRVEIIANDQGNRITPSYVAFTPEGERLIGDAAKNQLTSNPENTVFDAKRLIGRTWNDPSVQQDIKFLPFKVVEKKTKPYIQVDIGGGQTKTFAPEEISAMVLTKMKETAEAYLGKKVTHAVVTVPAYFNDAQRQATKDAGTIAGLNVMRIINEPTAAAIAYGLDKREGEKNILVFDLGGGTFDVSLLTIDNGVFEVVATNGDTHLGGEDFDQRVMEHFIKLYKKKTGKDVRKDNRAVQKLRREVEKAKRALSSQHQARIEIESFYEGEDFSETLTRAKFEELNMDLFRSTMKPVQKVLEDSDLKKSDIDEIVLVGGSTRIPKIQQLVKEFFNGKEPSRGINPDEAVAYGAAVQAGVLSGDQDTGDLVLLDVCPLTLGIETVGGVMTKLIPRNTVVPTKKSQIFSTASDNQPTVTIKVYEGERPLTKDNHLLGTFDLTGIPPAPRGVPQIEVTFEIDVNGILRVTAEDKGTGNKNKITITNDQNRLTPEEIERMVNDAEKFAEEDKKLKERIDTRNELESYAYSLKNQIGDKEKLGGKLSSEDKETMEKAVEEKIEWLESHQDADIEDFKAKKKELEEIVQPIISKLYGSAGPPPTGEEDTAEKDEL
# Results are given in words; binding and its absence hold for the method and conditions named. In cells and extracts the contact can be indirect. Binding calls can cover weak binding; strength is not graded here.
# Biological target: SBSPON ASP88Vla mutant, 3×Flag-tagged (human) (UniProt Q8IVN8)
# Assay: co-IP; cell lysates immunoprecipitated with anti-Flag (SBSPON) or anti-Myc (HSPA5) antibodies, then immunoblotting; NP-40 lysates, protein A/G agarose beads
substance,measurement,value
HSPA5 tagged with Myc (pcDNA3.1) (from UniProt P11021 19-654),binding,binds
